According to PubChem BioAssay AID504647 (National Center for Advancing Translational Sciences (NCATS), 2011):
This is one part of the list. These are further read-outs of the screen, such as a control signal, another cell line or another target. No call is given for them.

assay: Assay for Inhibitors of Influenza NS1 Protein Function: Influenza virus replication assay in MDCK cells infected with virus A/PR/8/34; conditions: MDCK infected influenza A/PR/8/34, virus titer TCID50; measured here: MDCK cell viability; at 5 µM; stronger effect = higher value
Source text: NIH Chemical Genomics Center [NCGC]
NIH Molecular Libraries Probe Centers Network [MLPCN]
Assay Submitter (PI): Daniel Engel
Influenza is a world-wide public health problem and emerging forms of the virus have the potential to cause a pandemic of equal or greater magnitude to the outbreaks recorded in 1918, 1957 or 1968. Vaccine development is proceeding and there also exist two classes of anti-influenza compounds. However these therapeutic modalities are neither fully effective nor widely enough available to fulfill global needs. In addition their potential usefulness against newly emergent strains is not known. Efforts are needed to develop novel agents against influenza virus, including broad-spectrum agents. Identification of small molecules that inhibit NS1 function either directly or by interfering with specific cellular pathways may be a key to increasing our defense against the virus.
We have miniaturized and optimized a cell based assay in which NS1 from influenza A is expressed in the budding yeast S. cerevisiae. NS1 is a multi-functional protein that counters the host innate immune response and facilitates viral versus cellular gene expression. Expression of NS1 causes a pronounced slow growth phenotype in yeast due to its intrinsic molecular activities. Small molecules that suppress the slow growth phenotype can be identified by a straightforward growth recovery assay using optical density (OD) as the measurement. The same yeast strain not expressing NS1 was used as positive control in the yeast growth recovery assay. The present experiment attempted to confirm the activity of compounds observed in the primary screen.
This assay confirms the activity of compounds from the primary screen by measuring their affect on viral replication.
Protocol details are given in Basu et al. J. Vir. 83(4):1881-1891 2009. […] All media and sera were from Invitrogen. […] Confluent cell monolayers were infected at a multiplicity of infection (MOI) of 0.1 for 48 h in the presence or absence of 5uM compound. Compounds were added at the beginning of infection and were present throughout the infection. After 48 h virus titers were determined by standard TCID50 analysis.

| Structure (SMILES) | viability [%] |
| --- | --- |
| CC(=O)Nc1ccc(Nc2ncnc3ccccc23)cc1 | 102 |
| CCOc1cc(/C=N/NC(=O)COc2ccc(Cl)cc2)ccc1OS(=O)(=O)c1ccccc1 | 99.2 |
| COc1ccc(-c2csc(Nc3ccc(S(=O)(=O)Nc4cc(OC)nc(OC)n4)cc3)n2)cc1 | 102 |
| CCc1ccccc1OCCCOc1ccc(OC)cc1 | 96.9 |
